Experimental data reported in publication PMC4109901, “Functional EF-Hands in Neuronal Calcium Sensor GCAP2 Determine Its Phosphorylation State and Subcellular Distribution In Vivo, and Are Essential for Photoreceptor Cell Integrity” (PLoS Genetics, 2014).
Where two headings read alike, the source gives them in different places. No constants are given. Whether binding was seen depends on the method and setting. In cells and extracts the contact can be indirect. A yes stands for co-enrichment or nearness to the bait. Other partners may have been found.

By UniProt entry, the sequences of proteins in these tests, tags left out. Where a name states a change or a piece, a line headed by the entry shows the natural chain unless it says otherwise.
UniProt P63101: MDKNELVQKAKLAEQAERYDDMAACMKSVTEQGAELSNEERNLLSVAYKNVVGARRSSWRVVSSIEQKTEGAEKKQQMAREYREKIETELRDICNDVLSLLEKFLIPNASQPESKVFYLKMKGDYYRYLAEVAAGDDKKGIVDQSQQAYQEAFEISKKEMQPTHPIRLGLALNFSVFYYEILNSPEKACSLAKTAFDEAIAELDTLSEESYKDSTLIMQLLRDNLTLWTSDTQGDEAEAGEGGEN
UniProt P62259: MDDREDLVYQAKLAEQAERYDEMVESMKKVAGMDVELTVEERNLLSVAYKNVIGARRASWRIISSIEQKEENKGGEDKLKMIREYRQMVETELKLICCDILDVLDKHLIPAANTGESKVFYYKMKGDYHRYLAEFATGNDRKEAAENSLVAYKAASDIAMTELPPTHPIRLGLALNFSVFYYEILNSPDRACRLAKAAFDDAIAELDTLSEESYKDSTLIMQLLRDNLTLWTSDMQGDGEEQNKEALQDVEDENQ

T1: bEF^−GCAP2, bovine GCAP2(E80Q/E116Q/D158N), transgene product in mouse rods (bovine) (UniProt P51177)
T1 sequence (chain, phosphorylated to high levels in vivo (Ser201)): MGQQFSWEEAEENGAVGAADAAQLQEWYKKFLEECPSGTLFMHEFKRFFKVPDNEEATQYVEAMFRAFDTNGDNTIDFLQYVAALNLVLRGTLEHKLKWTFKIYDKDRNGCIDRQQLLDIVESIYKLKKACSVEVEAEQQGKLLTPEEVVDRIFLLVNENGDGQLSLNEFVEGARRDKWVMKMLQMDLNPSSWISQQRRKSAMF

T2: bGCAP2, wildtype bovine GCAP2, transgene product in mouse rods (bovine) (UniProt P51177)
T2 sequence (chain, phosphorylated to low levels in vivo): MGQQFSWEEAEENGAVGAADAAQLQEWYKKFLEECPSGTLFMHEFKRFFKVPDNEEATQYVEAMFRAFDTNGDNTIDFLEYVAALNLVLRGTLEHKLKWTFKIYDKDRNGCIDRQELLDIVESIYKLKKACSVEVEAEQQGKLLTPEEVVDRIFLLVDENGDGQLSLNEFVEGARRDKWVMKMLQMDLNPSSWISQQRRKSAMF


Legend:
Test in all cases: affinity purification with mass spectrometry; anti-GCAP2 mAb2235 cross-linked to magnetic beads; forty retinas per phenotype in HEPES buffer pH 8.0, 135 mM NaCl, 4 mM EGTA, 1 mM NaF, 1% Triton-X100; 45 min at room temperature; elution at pH 2.5; LC-MS/MS; GCAPs−/− retinas as background
[1] = biological target: T1, bEF^−GCAP2, bovine GCAP2(E80Q/E116Q/D158N), transgene product in mouse rods (bovine)
[2] = biological target: T2, bGCAP2, wildtype bovine GCAP2, transgene product in mouse rods (bovine)
[3] = biological target: T1, bEF^−GCAP2, bovine GCAP2(E80Q/E116Q/D158N), transgene product in mouse rods (bovine); remark: listed apart in the source
[4] = biological target: T2, bGCAP2, wildtype bovine GCAP2, transgene product in mouse rods (bovine); remark: listed apart in the source

Molecule | binding [1] | binding [2] | binding [3] | binding [4]
14-3-3 protein ζ/δ (mouse) (from UniProt P63101 1-245) | binds | binds |  | 
14-3-3 protein ε (mouse) (from UniProt P62259 1-255) | binds | binds |  | 
14-3-3 protein τ (mouse) (protein, UniProt P68254 1-245) MEKTELIQKAKLAEQAERYDDMATCMKAVTEQGAELSNEERNLLSVAYKNVVGGRRSAWRVISSIEQKTDTSDKKLQLIKDYREKVESELRSICTTVLELLDKYLIANATNPESKVFYLKMKGDYFRYLAEVACGDDRKQTIENSQGAYQEAFDISKKEMQPTHPIRLGLALNFSVFYYEILNNPELACTLAKTAFDEAIAELDTLNEDSYKDSTLIMQLLRDNLTLWTSDSAGEECDAAEGAEN |  |  | binds | binds
14-3-3 protein γ (mouse) (protein, UniProt P61982 1-247) MVDREQLVQKARLAEQAERYDDMAAAMKNVTELNEPLSNEERNLLSVAYKNVVGARRSSWRVISSIEQKTSADGNEKKIEMVRAYREKIEKELEAVCQDVLSLLDNYLIKNCSETQYESKVFYLKMKGDYYRYLAEVATGEKRATVVESSEKAYSEAHEISKEHMQPTHPIRLGLALNYSVFYYEIQNAPEQACHLAKTAFDDAIAELDTLNEDSYKDSTLIMQLLRDNLTLWTSDQQDDDGGEGNN |  |  | binds | binds
14-3-3 protein β/α (mouse) (protein, UniProt Q9CQV8 1-246) MTMDKSELVQKAKLAEQAERYDDMAAAMKAVTEQGHELSNEERNLLSVAYKNVVGARRSSWRVISSIEQKTERNEKKQQMGKEYREKIEAELQDICNDVLELLDKYLILNATQAESKVFYLKMKGDYFRYLSEVASGENKQTTVSNSQQAYQEAFEISKKEMQPTHPIRLGLALNFSVFYYEILNSPEKACSLAKTAFDEAIAELDTLNEESYKDSTLIMQLLRDNLTLWTSENQGDEGDAGEGEN |  |  | binds | binds
